For 2 substances, binding results are on record in PMC5249261.

These are yes or no findings as the source states them, for the method shown. Binding seen in cells or lysates may run through a third protein. For part of these data: Binding calls can cover weak binding; strength is not graded here.

One assay concerns the target T1, T7-Vps41 (mouse) (UniProt Q5KU39).
T1 sequence: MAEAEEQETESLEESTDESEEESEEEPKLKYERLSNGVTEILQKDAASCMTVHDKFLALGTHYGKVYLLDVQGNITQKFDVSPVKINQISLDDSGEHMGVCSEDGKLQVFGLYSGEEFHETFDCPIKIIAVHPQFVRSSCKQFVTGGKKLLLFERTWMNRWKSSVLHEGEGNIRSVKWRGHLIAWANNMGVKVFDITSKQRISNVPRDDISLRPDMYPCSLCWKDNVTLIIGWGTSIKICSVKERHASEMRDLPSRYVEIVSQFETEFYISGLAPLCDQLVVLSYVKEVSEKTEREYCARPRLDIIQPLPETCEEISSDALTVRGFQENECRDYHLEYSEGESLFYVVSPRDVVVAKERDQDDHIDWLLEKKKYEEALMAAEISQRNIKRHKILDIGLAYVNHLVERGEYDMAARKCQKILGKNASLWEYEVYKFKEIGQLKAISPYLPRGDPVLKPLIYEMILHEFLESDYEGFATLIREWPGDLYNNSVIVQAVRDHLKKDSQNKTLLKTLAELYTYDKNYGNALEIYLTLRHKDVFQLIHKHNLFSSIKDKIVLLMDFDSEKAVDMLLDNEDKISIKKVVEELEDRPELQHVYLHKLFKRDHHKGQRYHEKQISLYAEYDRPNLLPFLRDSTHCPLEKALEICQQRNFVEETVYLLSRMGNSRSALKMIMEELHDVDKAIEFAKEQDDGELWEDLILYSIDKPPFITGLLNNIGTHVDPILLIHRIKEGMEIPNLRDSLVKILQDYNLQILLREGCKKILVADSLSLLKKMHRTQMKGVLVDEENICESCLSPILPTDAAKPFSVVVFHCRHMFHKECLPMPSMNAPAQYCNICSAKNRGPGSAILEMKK
Kind of assay: co-IP; COS-7 cells co-transfected with T7-Vps39 or T7-Vps41 and a FLAG-tagged Rab; lysed two days later; immunoprecipitated with anti-T7 antibody; detected by immunoblots.

Another assay has as its target T2, T7-Vps39 (mouse) (UniProt Q8R5L3).
T2 sequence: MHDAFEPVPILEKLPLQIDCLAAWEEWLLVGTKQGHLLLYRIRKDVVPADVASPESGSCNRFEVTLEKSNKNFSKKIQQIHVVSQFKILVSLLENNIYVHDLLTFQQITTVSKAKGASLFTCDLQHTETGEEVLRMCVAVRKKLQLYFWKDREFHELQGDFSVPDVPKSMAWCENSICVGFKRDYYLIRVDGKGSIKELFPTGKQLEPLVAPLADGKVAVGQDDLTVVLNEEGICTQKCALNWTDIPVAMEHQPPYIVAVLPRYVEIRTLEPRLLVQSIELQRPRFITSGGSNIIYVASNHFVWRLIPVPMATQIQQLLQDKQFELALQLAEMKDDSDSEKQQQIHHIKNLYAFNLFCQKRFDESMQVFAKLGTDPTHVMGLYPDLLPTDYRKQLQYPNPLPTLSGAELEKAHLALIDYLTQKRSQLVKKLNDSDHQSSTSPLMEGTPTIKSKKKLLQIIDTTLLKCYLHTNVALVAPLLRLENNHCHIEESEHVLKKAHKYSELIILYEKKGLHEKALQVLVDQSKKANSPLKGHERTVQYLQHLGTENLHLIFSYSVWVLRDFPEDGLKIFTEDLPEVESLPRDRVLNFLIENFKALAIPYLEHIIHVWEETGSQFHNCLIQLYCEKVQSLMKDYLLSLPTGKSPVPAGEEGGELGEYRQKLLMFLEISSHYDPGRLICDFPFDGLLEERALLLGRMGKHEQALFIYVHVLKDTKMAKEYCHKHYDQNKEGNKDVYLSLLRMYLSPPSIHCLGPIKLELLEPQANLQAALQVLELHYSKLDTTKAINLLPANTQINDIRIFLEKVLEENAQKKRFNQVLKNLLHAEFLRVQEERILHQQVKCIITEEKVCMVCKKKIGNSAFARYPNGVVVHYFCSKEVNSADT
The assay is described as above.

For the substance FLAG-tagged Rab5 (mouse), the binding entry with T7-Vps41 (mouse) and with T7-Vps39 (mouse) was “no binding” each time.

In the case of FLAG-tagged Rab7 (mouse), in the assay with T7-Vps41 (mouse), the binding result is on record as “binds”.
